This note sets out measurements from article PMC13459536.

For this test, the target named is T1, Atp6-HA-6xHis (ATP synthase subunit a) (S. cerevisiae) (UniProt P00854).
T1 sequence: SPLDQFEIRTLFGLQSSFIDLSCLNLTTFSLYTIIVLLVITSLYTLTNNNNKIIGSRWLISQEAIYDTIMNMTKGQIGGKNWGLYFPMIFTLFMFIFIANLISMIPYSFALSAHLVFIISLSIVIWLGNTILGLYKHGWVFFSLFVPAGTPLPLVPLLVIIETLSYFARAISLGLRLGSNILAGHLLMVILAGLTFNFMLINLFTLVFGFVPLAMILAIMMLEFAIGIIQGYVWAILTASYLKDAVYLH
Briefly: pull-down; ATP synthase complexes purified through Atp6-HA-6xHis on Ni-NTA agarose beads from 5 mg of mitochondria of the wild-type strain; 2 ug of eluate on 15% SDS-PAGE, Western blot with antibodies against the subunits. In general terms: A western blot detects proteins with antibodies after separation by electrophoresis.

No constants are given. Whether binding was seen depends on the method and setting. In cells and extracts the contact can be indirect. Some results given as binding are weak or reduced against the parent protein; the word gives no strength. Where a sequence is shown, tags or fusion partners need not be part of it.

B1: Atp3 (ATP synthase subunit γ) (protein, UniProt P38077 34-311)
chain: ATLKEVEMRLKSIKNIEKITKTMKIVASTRLSKAEKAKISAKKMDEAEQLFYKNAETKNLDVEATETGAPKELIVAITSDKGLCGSIHSQLAKAVRRHLNDQPNADIVTIGDKIKMQLLRTHPNNIKLSINGIGKDAPTFQESALIADKLLSVMKAGTYPKISIFYNDPVSSLSFEPSEKPIFNAKTIEQSPSFGKFEIDTDANVPRDLFEYTLANQMLTAMAQGYAAEISARRNAMDNASKNAGDMINRYSILYNRTRQAVITNELVDIITGASSLG
On to B1, for which the binding entry is listed as “binds”.
